Measurements published in patent publication US7868177B2, “Multi-cyclic compounds and method of use” (Amgen Inc., priority 2006, dated 2011).
Some entries share one result that the patent states for a list of compounds.

By UniProt entry, the sequences of proteins in these tests, tags left out. Residues count along the entry.
UniProt Q02763, 23-1124: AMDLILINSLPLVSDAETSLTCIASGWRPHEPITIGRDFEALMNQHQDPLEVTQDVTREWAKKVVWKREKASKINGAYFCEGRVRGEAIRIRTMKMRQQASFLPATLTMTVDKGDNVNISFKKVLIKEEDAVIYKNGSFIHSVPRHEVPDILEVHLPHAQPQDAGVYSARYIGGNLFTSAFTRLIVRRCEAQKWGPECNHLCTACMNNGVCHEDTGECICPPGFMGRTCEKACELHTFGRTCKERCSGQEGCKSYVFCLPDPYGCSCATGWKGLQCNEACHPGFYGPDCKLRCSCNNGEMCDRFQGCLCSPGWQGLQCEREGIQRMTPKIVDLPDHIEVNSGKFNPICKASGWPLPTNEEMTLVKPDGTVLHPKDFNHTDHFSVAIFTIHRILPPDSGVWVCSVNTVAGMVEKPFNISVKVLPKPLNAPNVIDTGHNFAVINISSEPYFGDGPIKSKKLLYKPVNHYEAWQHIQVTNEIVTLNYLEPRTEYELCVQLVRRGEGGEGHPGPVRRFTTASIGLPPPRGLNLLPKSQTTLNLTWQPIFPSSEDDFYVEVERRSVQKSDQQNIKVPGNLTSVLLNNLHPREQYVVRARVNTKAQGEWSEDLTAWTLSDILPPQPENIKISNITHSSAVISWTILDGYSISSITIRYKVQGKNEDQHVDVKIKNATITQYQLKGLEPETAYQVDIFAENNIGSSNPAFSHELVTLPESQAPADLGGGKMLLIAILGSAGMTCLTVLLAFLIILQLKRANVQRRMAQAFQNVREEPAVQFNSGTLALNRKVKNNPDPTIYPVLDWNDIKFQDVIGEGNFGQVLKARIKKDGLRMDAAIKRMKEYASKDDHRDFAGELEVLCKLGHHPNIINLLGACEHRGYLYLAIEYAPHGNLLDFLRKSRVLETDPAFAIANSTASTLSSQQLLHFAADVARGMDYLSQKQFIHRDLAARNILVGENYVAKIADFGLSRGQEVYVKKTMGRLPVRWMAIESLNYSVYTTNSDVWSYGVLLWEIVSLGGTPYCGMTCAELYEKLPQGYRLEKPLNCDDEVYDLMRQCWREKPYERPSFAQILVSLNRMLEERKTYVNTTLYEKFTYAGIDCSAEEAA

The compounds below were run against Tie-2 kinase enzyme (Homo sapiens, UniProt Q02763) (assay: Tie-2 Homogenous Time Resolved Fluorescent (HTRF) kinase assay). Conditions: read-out: IC50's for the inhibition of Tie-2 as measured by the HTRF assay.
Type: biochemical
In the case of `CNc1nccc(-c2cccnc2Oc2c(Cl)cc(Nc3nc4ccccc4[nH]3)cc2Cl)n1` [Example 37, N-(3,5-dichloro-4-((3-(2-(methylamino)-4-pyrimidinyl)-2-pyridinyl)oxy)phenyl)-1H-benzimidazol-2-amine], the IC50 is reported as no more than 5 µM.
Work on `CN1CCC(Nc2nccc(-c3cccnc3Oc3ccc(Nc4nc5ccccc5[nH]4)c4ccccc34)n2)CC1` [Example 52, N-(4-((3-(2-((1-methyl-4-piperidinyl)amino)-4-pyrimidinyl)-2-pyridinyl)oxy)-1-naphthalenyl)-1H-benzimidazol-2-amine] yielded an IC50 of no more than 5 µM.
Work on `CN(C)CCNc1nccc(-c2cccnc2Oc2ccc(Nc3nc4ccccc4[nH]3)c3ccccc23)n1` [Example 25, N~1~-(4-(2-((4-(1H-benzimidazol-2-ylamino)-1-naphthalenyl)oxy)-3-pyridinyl)-2-pyrimidinyl)-N~2~,N~2~-dimethyl-1,2-ethanediamine] yielded an IC50 of no more than 5 µM.
Compound `CNc1nccc(-c2ccccc2Oc2ccc(Nc3nc4ccccc4[nH]3)cc2)n1` [Example 41, N-(4-((2-(2-(methylamino)-4-pyrimidinyl)phenyl)oxy)phenyl)-1H-benzimidazol-2-amine] has an IC50 of no more than 5 µM.
Work on `Fc1cc2nc(Nc3ccc(Oc4ncccc4-c4ccnc(Nc5cccnc5)n4)cc3)[nH]c2cc1F` [Example 13, 5,6-difluoro-N-(4-(3-(2-(pyridin-3-ylamino)pyrimidin-4-yl)pyridin-2-yloxy)phenyl)-1H-benzo[d]imidazol-2-amine] yielded an IC50 of no more than 5 µM.
Compound `CN(C)CCCCCNc1nccc(-c2cccnc2Oc2ccc(Nc3nc4cc(F)c(F)cc4[nH]3)cc2)n1` [Example 98, N′-(4-(2-((4-((5,6-difluoro-1H-benzimidazol-2-yl)amino)phenyl)oxy)-3-pyridinyl)-2-pyrimidinyl)-N,N-dimethyl-1,5-pentanediamine] has an IC50 of no more than 5 µM.
`OCCN(CCO)CCCNc1nccc(-c2cccnc2Oc2ccc(Nc3nc4cc(F)c(F)cc4[nH]3)cc2)n1` [Example 97, 2,2′-((3-((4-(2-((4-((5,6-difluoro-1H-benzimidazol-2-yl)amino)phenyl)oxy)-3-pyridinyl)-2-pyrimidinyl)amino)propyl)imino)diethanol] was tested, and the IC50 was no more than 5 µM.
In the case of `CNc1nccc(-c2cccnc2Oc2ccc(Nc3nc4c(F)c(F)c(F)c(F)c4[nH]3)cc2)n1` [Example 111, 4,5,6,7-tetrafluoro-N-(4-((3-(2-(methylamino)-4-pyrimidinyl)-2-pyridinyl)oxy)phenyl)-1H-benzimidazol-2-amine], the IC50 is reported as no more than 5 µM.
`Fc1cc2nc(Nc3ccc(Oc4ncccc4-c4ccnc(NCCCN5CCSCC5)n4)cc3)[nH]c2cc1F` [Example 95, 5,6-difluoro-N-(4-((3-(2-((3-(4-thiomorpholinyl)propyl)amino)-4-pyrimidinyl)-2-pyridinyl)oxy)phenyl)-1H-benzimidazol-2-amine] gave an IC50 of no more than 5 µM.
For `c1cnc(Oc2ccc(Nc3nc4ccccc4[nH]3)c3ccccc23)c(-c2ccnc(NCCCn3ccnn3)n2)c1` [Example 94, N-(4-((3-(2-((3-(1H-1,2,3-triazol-1-yl)propyl)amino)-4-pyrimidinyl)-2-pyridinyl)oxy)-1-naphthalenyl)-1H-benzimidazol-2-amine], the IC50 was no more than 5 µM.
`CN1CCN(CCCNc2nccc(-c3cccnc3Oc3ccc(Nc4nc5cc(F)c(F)cc5[nH]4)cc3)n2)CC1` [Example 11, 5,6-difluoro-N-(4-(3-(2-(3-(4-methylpiperazin-1-yl)propylamino)pyrimidin-4-yl)pyridin-2-yloxy)phenyl)-1H-benzo[d]imidazol-2-amine] was tested, and the IC50 was no more than 5 µM.
`CNc1nccc(-c2cccnc2Oc2ccc(Nc3nc(-c4ccccc4)c(C)[nH]3)cc2)n1` [Example 8, N-methyl-4-(2-(4-(5-methyl-4-phenyl-1H-imidazol-2-ylamino)phenoxy)pyridin-3-yl)pyrimidin-2-amine] was tested, and the IC50 was no more than 5 µM.
Work on `CNc1nccc(-c2cccnc2Oc2ccc(Nc3nc4ccccc4n3CCN(C)C)c3ccccc23)n1` [Example 34, 1-(2-(dimethylamino)ethyl)-N-(4-((3-(2-(methylamino)-4-pyrimidinyl)-2-pyridinyl)oxy)-1-naphthalenyl)-1H-benzimidazol-2-amine] yielded an IC50 of no more than 5 µM.
With `CNc1nccc(-c2cccnc2Oc2ccc(Nc3nc4ccc(C(F)(F)F)cc4[nH]3)cc2C)n1` [Example 65, N-(3-methyl-4-((3-(2-(methylamino)-4-pyrimidinyl)-2-pyridinyl)oxy)phenyl)-5-(trifluoromethyl)-1H-benzimidazol-2-amine] the IC50 was no more than 5 µM.
Compound `CN1CCN(c2ccc(Nc3nccc(-c4cccnc4Oc4ccc(Nc5nc6c(F)c(F)ccc6[nH]5)cc4)n3)cc2)CC1` [Example 107, 4,5-difluoro-N-(4-((3-(2-((4-(4-methyl-1-piperazinyl)phenyl)amino)-4-pyrimidinyl)-2-pyridinyl)oxy)phenyl)-1H-benzimidazol-2-amine] has an IC50 of no more than 5 µM.
`CNc1nccc(-c2cccnc2Sc2ccc(Nc3nc4c(F)c(F)ccc4[nH]3)cc2)n1` [Example 106, 4,5-difluoro-N-(4-((3-(2-(methylamino)-4-pyrimidinyl)-2-pyridinyl)thio)phenyl)-1H-benzimidazol-2-amine] showed an IC50 of no more than 5 µM.
In the case of `Fc1cc2nc(Nc3ccc(Oc4ncccc4-c4ccnc(NCCCN5CCOCC5)n4)cc3)[nH]c2cc1F` [Example 100, 5,6-difluoro-N-(4-((3-(2-((3-(4-morpholinyl)propyl)amino)-4-pyrimidinyl)-2-pyridinyl)oxy)phenyl)-1H-benzimidazol-2-amine], the IC50 is reported as no more than 5 µM.
Work on `CNc1nccc(-c2cccnc2Oc2ccc(Nc3nc4ccc(F)c(F)c4[nH]3)cn2)n1` [Example 40, 6,7-difluoro-N-(6-((3-(2-(methylamino)-4-pyrimidinyl)-2-pyridinyl)oxy)-3-pyridinyl)-1H-benzimidazol-2-amine] yielded an IC50 of no more than 5 µM.
`CNc1nccc(-c2cccnc2Oc2ccc(Nc3nc4c(F)c(F)ccc4[nH]3)cc2C)n1` [Example 110, 4,5-difluoro-N-(3-methyl-4-((3-(2-(methylamino)-4-pyrimidinyl)-2-pyridinyl)oxy)phenyl)-1H-benzimidazol-2-amine] gave an IC50 of no more than 5 µM.
`CNc1nccc(-c2cccnc2Oc2ccc(Nc3nnc(-c4ccccc4)[nH]3)cc2)n1` [Example 9, N-methyl-4-(2-(4-(5-phenyl-4H-1,2,4-triazol-3-ylamino)phenoxy)pyridin-3-yl)pyrimidin-2-amine] showed an IC50 of no more than 5 µM.
In the case of `CNc1nccc(-c2cccnc2Oc2ccc(Nc3nc4c(C(F)(F)F)cc(C(F)(F)F)cc4[nH]3)cc2)n1` [Example 85, N-(4-((3-(2-(methylamino)-4-pyrimidinyl)-2-pyridinyl)oxy)phenyl)-4,6-bis(trifluoromethyl)-1H-benzimidazol-2-amine], the IC50 is reported as no more than 5 µM.
With `CNc1nccc(-c2cccnc2Oc2ccc(Nc3nc4c(C)cccc4[nH]3)cc2)n1` [Example 72, 4-methyl-N-(4-((3-(2-(methylamino)-4-pyrimidinyl)-2-pyridinyl)oxy)phenyl)-1H-benzimidazol-2-amine] the IC50 was no more than 5 µM.
`Fc1ccc2[nH]c(Nc3ccc(Oc4ncccc4-c4ccnc(NCCCN5CCOCC5)n4)cc3)nc2c1` [Example 83, 5-fluoro-N-(4-((3-(2-((3-(4-morpholinyl)propyl)amino)-4-pyrimidinyl)-2-pyridinyl)oxy)phenyl)-1H-benzimidazol-2-amine] showed an IC50 of no more than 5 µM.
`CNc1nccc(-c2cccnc2Oc2ccc(Nc3nc4cccnc4[nH]3)c3ccccc23)n1` [Example 31, N-(4-((3-(2-(methylamino)-4-pyrimidinyl)-2-pyridinyl)oxy)-1-naphthalenyl)-3H-imidazo[4,5-b]pyridin-2-amine] gave an IC50 of no more than 5 µM.
